Measured values from article PMC10433927.
No constants are given. Whether binding was seen depends on the method and setting. Binding can be weak; no strength is given. For some of these results: Tags and fused reporters may be left off the sequences shown. For some of these results: In cells and extracts the contact can be indirect.

T1: BD-ZmSGT1 (Zea mays)
T1 sequence: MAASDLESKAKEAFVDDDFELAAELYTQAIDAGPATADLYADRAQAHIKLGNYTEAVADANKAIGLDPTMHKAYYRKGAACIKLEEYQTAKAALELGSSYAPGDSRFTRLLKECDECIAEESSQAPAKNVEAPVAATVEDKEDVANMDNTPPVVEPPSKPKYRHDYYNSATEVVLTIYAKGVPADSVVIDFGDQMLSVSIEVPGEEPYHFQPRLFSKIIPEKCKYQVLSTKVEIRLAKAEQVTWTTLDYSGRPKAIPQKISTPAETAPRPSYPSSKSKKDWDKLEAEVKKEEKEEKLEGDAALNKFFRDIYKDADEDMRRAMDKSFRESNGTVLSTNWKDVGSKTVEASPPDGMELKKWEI


Tests used:
BD-ZmSGT1 (Zea mays) = target: T1, BD-ZmSGT1 (Zea mays); assay: two-hybrid; yeast AH109, pGBKT7 (BD) and pGADT7 (AD); dilution series on SD-Leu-Trp and SD-Leu-Trp-His, 5 d at 28 °C
[1] = target: BD-UmSee1∆SP (Ustilago maydis); assay: as above
ZmSIP1-4myc (Zea mays) = assay: co-IP; co-expression in N. benthamiana leaves, harvest 3 dpi; Myc magnetic beads at 4 °C; blots with anti-HA and anti-myc
ZmSIP2-4myc (Zea mays) = assay: as above
ZmSIP3-4myc (Zea mays) = assay: as above

binding (BD-ZmSGT1 (Zea mays))	binding (ZmSIP1-4myc (Zea mays))	binding (ZmSIP2-4myc (Zea mays))	binding (ZmSIP3-4myc (Zea mays))	Molecule	binding [1]
binds				AD-ZmSIP1 (Zea mays)	
binds weakly				AD-ZmSIP3 (Zea mays)	
	binds	binds	binds	ZmSGT1-6HA (protein, UniProt A0A3L6DPG1 1-361) MAASDLESKAKEAFVDDDFELAAELYTQAIDAGPATADLYADRAQAHIKLGNYTEAVADANKAIGLDPTMHKAYYRKGAACIKLEEYQTAKAALELGSSYAPGDSRFTRLLKECDECIAEESSQAPAKNVEAPVAATVEDKEDVANMDNTPPVVEPPSKPKYRHDYYNSATEVVLTIYAKGVPADSVVIDFGDQMLSVSIEVPGEEPYHFQPRLFSKIIPEKCKYQVLSTKVEIRLAKAEQVTWTTLDYSGRPKAIPQKISTPAETAPRPSYPSSKSKKDWDKLEAEVKKEEKEEKLEGDAALNKFFRDIYKDADEDMRRAMDKSFRESNGTVLSTNWKDVGSKTVEASPPDGMELKKWEI	

Molecule	binding (BD-ZmSGT1 (Zea mays))	binding (ZmSIP1-4myc (Zea mays))	binding (ZmSIP2-4myc (Zea mays))	binding (ZmSIP3-4myc (Zea mays))	binding [1]
AD-ZmSIP2 (from UniProt A0A1D6G9Q0)	binds				binds
